In the supplement of paper PMC10849652:
This is one part of the list.

Protein sequences, listed by entry. Tags and fused reporters are not part of them. Lines headed by an entry give the natural chain unless they say otherwise; changes in a name come on top.
UniProt O43639, whole entry, looked up: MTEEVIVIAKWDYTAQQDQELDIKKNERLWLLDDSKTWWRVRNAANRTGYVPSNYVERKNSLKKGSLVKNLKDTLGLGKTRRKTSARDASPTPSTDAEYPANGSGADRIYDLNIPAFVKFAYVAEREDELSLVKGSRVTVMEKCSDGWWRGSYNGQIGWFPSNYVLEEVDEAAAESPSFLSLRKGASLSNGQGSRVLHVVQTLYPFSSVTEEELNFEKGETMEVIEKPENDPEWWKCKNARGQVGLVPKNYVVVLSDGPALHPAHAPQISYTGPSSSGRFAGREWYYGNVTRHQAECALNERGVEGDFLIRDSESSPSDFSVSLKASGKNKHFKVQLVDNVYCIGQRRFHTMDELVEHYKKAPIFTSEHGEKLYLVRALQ
UniProt Q8IW45: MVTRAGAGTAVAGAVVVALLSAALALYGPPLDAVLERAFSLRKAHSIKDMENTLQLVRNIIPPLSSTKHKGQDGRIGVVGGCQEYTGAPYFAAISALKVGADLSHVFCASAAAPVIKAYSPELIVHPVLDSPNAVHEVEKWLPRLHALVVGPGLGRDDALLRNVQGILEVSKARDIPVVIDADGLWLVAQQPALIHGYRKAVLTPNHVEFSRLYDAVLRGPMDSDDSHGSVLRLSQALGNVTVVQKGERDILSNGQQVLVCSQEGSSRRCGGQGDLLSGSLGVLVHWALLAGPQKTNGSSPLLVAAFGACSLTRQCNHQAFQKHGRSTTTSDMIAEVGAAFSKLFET
UniProt Q15021, whole entry, looked up: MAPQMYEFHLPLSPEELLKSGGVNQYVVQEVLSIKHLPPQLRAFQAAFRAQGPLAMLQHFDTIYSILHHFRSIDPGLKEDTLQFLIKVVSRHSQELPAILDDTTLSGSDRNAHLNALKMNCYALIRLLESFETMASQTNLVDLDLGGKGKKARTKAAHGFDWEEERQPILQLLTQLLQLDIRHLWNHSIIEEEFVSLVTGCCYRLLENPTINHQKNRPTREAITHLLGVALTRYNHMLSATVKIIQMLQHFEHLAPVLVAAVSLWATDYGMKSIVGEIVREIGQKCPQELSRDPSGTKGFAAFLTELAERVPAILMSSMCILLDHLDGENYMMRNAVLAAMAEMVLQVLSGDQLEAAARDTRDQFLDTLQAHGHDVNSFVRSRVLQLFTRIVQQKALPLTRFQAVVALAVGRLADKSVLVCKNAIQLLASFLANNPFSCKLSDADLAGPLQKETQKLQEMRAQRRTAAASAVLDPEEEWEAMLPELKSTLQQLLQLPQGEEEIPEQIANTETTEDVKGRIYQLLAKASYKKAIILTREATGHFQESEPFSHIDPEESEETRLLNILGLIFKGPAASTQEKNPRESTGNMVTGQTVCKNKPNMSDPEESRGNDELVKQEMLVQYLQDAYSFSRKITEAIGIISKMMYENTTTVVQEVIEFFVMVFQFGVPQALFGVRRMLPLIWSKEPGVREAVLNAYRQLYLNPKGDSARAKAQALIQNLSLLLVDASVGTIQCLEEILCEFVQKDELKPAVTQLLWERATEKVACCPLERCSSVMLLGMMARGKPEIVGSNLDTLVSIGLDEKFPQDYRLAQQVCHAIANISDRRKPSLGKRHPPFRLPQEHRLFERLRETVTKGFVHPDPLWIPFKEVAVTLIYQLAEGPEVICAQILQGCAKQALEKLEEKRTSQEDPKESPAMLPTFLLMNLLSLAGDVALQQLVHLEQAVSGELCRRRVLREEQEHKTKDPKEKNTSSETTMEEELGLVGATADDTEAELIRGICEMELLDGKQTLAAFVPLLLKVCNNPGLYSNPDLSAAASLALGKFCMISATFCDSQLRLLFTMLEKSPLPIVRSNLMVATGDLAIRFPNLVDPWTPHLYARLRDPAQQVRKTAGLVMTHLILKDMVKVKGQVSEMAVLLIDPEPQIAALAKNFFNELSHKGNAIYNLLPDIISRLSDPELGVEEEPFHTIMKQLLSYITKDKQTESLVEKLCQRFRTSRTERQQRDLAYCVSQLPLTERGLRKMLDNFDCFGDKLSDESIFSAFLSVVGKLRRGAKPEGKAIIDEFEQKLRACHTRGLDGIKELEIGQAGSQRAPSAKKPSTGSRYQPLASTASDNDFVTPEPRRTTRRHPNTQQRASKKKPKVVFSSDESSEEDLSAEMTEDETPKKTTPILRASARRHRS
UniProt Q9BRA0: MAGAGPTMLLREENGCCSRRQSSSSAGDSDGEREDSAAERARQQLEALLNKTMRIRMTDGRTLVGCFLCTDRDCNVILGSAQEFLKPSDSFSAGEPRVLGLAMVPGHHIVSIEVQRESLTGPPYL
UniProt Q9UHQ1: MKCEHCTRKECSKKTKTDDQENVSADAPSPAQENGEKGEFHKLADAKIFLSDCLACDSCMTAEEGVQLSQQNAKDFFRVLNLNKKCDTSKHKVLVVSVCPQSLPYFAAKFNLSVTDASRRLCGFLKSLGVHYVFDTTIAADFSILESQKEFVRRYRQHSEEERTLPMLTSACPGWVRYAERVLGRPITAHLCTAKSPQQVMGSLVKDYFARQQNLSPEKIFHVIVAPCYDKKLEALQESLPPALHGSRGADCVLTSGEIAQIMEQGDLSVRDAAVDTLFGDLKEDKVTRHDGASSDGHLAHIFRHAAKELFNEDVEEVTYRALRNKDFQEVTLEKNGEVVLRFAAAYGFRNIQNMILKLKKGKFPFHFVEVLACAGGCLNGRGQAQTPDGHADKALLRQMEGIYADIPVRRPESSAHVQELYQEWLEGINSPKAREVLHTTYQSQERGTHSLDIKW
UniProt Q96S97: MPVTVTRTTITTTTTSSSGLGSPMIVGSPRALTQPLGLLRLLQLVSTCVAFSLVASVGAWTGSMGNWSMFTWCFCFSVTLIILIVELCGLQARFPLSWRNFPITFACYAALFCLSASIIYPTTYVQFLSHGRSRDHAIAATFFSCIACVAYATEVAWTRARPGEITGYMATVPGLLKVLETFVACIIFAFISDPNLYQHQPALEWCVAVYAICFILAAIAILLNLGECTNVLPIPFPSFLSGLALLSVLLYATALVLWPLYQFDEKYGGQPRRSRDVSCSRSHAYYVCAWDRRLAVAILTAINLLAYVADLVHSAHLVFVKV
UniProt Q13772: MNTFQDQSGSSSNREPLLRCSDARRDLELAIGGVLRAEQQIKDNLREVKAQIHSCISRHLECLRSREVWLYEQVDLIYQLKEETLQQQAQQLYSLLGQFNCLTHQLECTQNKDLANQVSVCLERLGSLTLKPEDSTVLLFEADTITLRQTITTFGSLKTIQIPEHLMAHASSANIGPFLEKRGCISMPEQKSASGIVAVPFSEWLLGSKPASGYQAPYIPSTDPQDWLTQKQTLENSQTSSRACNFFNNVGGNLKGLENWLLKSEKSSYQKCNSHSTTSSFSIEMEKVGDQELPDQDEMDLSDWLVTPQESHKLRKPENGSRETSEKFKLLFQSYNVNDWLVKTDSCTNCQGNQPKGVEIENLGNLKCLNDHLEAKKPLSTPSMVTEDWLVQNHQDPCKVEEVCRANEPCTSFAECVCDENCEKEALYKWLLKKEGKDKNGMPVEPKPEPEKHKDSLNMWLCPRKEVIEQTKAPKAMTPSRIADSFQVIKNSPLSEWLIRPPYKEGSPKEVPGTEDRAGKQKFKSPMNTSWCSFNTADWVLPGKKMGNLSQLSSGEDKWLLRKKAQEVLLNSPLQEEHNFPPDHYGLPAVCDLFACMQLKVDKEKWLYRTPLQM
UniProt Q99733: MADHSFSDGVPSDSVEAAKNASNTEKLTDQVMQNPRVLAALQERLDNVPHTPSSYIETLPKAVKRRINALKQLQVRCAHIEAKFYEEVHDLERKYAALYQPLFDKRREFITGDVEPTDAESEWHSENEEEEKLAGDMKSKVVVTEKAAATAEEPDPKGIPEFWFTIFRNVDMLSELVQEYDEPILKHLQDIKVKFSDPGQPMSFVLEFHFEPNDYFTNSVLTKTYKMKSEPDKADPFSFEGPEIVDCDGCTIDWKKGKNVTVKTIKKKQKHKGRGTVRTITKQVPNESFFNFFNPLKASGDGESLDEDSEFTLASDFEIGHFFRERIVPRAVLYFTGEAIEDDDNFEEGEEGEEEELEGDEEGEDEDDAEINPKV
UniProt Q9UBB6: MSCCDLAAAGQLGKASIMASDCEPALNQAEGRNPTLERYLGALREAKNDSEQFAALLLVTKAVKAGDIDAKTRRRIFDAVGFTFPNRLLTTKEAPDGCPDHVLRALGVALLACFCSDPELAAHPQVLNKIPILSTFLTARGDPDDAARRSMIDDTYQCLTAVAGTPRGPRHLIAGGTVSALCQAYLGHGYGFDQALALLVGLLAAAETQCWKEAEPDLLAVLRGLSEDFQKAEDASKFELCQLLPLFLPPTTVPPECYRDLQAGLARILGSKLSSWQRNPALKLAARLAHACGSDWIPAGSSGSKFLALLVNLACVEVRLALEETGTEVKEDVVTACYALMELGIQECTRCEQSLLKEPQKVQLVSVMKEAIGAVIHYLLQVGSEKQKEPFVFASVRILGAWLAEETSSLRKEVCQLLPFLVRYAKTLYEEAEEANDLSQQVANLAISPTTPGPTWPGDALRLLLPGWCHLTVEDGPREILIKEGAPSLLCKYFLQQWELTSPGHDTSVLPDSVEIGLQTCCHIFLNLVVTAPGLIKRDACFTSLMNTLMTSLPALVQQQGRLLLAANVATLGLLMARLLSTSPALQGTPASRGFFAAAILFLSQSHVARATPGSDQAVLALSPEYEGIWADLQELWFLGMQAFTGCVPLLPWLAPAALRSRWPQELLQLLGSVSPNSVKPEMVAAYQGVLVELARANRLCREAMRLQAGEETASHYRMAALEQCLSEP
UniProt Q15003, whole entry, looked up: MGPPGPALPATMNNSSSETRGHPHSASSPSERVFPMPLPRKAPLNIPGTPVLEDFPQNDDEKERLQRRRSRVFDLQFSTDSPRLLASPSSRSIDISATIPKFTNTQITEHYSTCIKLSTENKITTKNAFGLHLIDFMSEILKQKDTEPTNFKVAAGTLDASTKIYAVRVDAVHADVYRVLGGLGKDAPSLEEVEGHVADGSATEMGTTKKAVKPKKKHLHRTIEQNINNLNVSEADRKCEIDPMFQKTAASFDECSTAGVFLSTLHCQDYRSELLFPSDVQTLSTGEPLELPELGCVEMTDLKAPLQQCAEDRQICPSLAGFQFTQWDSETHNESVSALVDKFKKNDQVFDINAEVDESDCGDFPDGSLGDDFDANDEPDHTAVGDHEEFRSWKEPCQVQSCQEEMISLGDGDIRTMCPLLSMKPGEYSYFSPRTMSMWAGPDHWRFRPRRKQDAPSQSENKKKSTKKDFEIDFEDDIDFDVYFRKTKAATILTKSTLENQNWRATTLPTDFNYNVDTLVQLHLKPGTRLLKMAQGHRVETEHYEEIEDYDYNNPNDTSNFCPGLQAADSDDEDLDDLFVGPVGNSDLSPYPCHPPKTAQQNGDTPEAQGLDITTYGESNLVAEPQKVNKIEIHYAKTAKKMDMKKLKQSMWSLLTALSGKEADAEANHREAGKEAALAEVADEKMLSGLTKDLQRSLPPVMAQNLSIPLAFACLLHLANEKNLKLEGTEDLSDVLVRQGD
UniProt Q969H8: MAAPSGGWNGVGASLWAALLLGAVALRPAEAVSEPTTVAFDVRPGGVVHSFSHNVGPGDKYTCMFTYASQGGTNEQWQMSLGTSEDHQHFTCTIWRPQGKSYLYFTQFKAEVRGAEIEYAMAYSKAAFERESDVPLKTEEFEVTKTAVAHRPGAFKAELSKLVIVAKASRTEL
UniProt Q969V5: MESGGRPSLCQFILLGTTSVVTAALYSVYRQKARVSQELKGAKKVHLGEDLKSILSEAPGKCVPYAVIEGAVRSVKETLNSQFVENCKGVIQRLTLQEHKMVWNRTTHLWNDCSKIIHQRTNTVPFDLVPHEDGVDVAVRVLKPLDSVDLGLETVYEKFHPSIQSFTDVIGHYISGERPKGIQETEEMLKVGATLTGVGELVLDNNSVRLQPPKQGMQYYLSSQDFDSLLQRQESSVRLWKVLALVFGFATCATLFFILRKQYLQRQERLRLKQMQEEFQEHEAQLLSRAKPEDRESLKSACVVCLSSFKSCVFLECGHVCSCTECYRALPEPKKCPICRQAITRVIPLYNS
UniProt P54920: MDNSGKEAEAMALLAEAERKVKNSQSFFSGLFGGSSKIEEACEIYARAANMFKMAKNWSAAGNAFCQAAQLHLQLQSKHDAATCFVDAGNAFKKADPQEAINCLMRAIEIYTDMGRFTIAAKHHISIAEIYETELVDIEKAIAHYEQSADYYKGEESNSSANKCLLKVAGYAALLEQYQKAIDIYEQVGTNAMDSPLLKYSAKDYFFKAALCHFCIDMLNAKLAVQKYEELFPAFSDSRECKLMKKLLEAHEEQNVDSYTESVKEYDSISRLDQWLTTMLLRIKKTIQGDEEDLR
UniProt Q9Y5N5: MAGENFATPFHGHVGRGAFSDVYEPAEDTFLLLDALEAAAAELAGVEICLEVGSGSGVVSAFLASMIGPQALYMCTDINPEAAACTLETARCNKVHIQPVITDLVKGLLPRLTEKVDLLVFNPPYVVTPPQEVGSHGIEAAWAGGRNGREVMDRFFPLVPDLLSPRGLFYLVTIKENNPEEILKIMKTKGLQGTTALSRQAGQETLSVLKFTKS

Assays:
Assay in all cases: log2 fold change, soluble protein after heating vs DMSO (PISA); higher = thermal stabilisation; K562 lysate, 10 uM; active = over 0.2 and 3.5 SD of the protein, either way, in both replicates (recomputed)
lapatinib = compound: CS(=O)(=O)CCNCc1ccc(-c2ccc3ncnc(Nc4ccc(OCc5cccc(F)c5)c(Cl)c4)c3c2)o1 [lapatinib]
Outline: (§1)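 Quantification was by TMTpro 16plex LC-MS/MS with equalised channel sums, applied to the supernatant after 21,000xg for 90 min. Samples were crude K562 extract at 1 mg/mL protein in PBS pH 7.4 with 1 mM MgCl2, treated with 10 μM compound for 30 min, heated for 3 min across 48°C-58°C, pooled and brought to 0.5% NP-40 at 4°C. Values are log-two fold changes in thermal stability relative to solvent controls, from duplicates.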

pictilisib = compound: CS(=O)(=O)N1CCN(Cc2cc3nc(-c4cccc5[nH]ncc45)nc(N4CCOCC4)c3s2)CC1 [pictilisib]
Outline: as §1

crizotinib = compound: C[C@@H](Oc1cc(-c2cnn(C3CCNCC3)c2)cnc1N)c1c(Cl)ccc(F)c1Cl [crizotinib]
Outline: as §1

[1] = compound: C[C@H](C1=CC=C(C=C1)C(=O)NC2=C3C=CNC3=NC=C2)N
Outline: as §1

duvelisib = compound: C[C@H](Nc1ncnc2nc[nH]c12)c1cc2cccc(Cl)c2c(=O)n1-c1ccccc1 [duvelisib]
Outline: as §1

gandotinib = compound: Cc1cc(Nc2cc(CN3CCOCC3)c3nc(C)c(Cc4ccc(Cl)cc4F)n3n2)n[nH]1 [gandotinib]
Outline: as §1

tozasertib = compound: Cc1cc(Nc2cc(N3CCN(C)CC3)nc(Sc3ccc(NC(=O)C4CC4)cc3)n2)n[nH]1 [tozasertib]
Outline: as §1

doramapimod = compound: Cc1ccc(-n2nc(C(C)(C)C)cc2NC(=O)Nc2ccc(OCCN3CCOCC3)c3ccccc23)cc1 [doramapimod]
Outline: as §1

bafetinib = compound: Cc1ccc(NC(=O)c2ccc(CN3CC[C@H](N(C)C)C3)c(C(F)(F)F)c2)cc1Nc1nccc(-c2cncnc2)n1 [bafetinib]
Outline: as §1

[2] = compound: Cc1cccc(CC(=O)N2CCc3c2ccc(-c2cn(C)c4ncnc(N)c24)c3F)n1
Outline: as §1

nilotinib = compound: Cc1cn(-c2cc(NC(=O)c3ccc(C)c(Nc4nccc(-c5cccnc5)n4)c3)cc(C(F)(F)F)c2)cn1 [nilotinib]
Outline: as §1

[3] = compound: Cc1nc(Nc2n[nH]c3c2CN(C(=O)N[C@H](CN(C)C)c2ccccc2)C3(C)C)c2sccc2n1
Outline: as §1

dasatinib = compound: Cc1nc(Nc2ncc(C(=O)Nc3c(C)cccc3Cl)s2)cc(N2CCN(CCO)CC2)n1 [dasatinib]
Outline: as §1

[4] = compound: Cc1ncc(-c2ccnc(Nc3ccc(S(C)(=O)=O)cc3)n2)n1C(C)C
Outline: as §1

[5] = compound: Cn1cc(-c2ccc3c(c2)CCN3C(=O)Cc2cccc(C(F)(F)F)c2)c2c(N)ncnc21
Outline: as §1

quisinostat = compound: Cn1cc(CNCC2CCN(c3ncc(C(=O)NO)cn3)CC2)c2ccccc21 [quisinostat]
Outline: as §1

tipifarnib = compound: Cn1cncc1[C@@](N)(c1ccc(Cl)cc1)c1ccc2c(c1)c(-c1cccc(Cl)c1)cc(=O)n2C [tipifarnib]
Outline: as §1

[6] = compound: NC(=O)Nc1cc(-c2cccc(F)c2)sc1C(=O)N[C@H]1CCCNC1
Outline: as §1

[7] = compound: NC(=O)c1cnc(N[C@@H]2CCCC[C@@H]2N)nc1Nc1cccc(-n2nccn2)c1
Outline: as §1

[8] = compound: NC1(c2ccc(-c3nc4ccn5c(=O)[nH]nc5c4cc3-c3ccccc3)cc2)CCC1
Outline: as §1

Measured: log2 fold change

NCK2 (UniProt O43639)
inactive: lapatinib -0.014 | pictilisib -0.089 | crizotinib 0.037 | [1] 0.029 | duvelisib 0.034 | gandotinib -0.024 | tozasertib 0.045 | doramapimod 0.092 | bafetinib 0.012 | [2] 0 | nilotinib 0.024 | [3] 0.007 | dasatinib 0.011 | [4] -0.051 | [5] 0.018 | quisinostat 0.009 | tipifarnib -0.04 | [6] -0.006 | [7] -0.012 | [8] -0.052

NAXD (UniProt Q8IW45)
inactive: lapatinib 0.002 | pictilisib -0.023 | crizotinib 0.009 | [1] -0.017 | duvelisib 0.009 | gandotinib 0.1 | tozasertib -0.008 | doramapimod -0.006 | bafetinib 0 | [2] 0.132 | nilotinib 0.014 | [3] -0.092 | dasatinib 0.003 | [4] 0.066 | [5] -0.006 | quisinostat -0.01 | tipifarnib 0.077 | [6] -0.013 | [7] 0.002 | [8] -0.047

NCAPD2 (UniProt Q15021)
inactive: lapatinib -0.033 | pictilisib 0.001 | crizotinib -0.049 | [1] -0.003 | duvelisib 0.014 | gandotinib -0.115 | tozasertib -0.006 | doramapimod 0.011 | bafetinib -0.036 | [2] 0.029 | nilotinib 0.006 | [3] 0.01 | dasatinib -0.037 | [4] -0.001 | [5] 0.031 | quisinostat -0.064 | tipifarnib -0.019 | [6] 0.044 | [7] 0.003 | [8] -0.009

MYOM1 (UniProt P52179)
inactive: lapatinib 0.099 | pictilisib 0.009 | crizotinib 0.054 | [1] -0.082 | duvelisib -0.02 | gandotinib 0.065 | tozasertib -0.137 | doramapimod -0.436 | bafetinib -0.252 | [2] 0.05 | nilotinib -0.127 | [3] -0.078 | dasatinib 0.058 | [4] 0.039 | [5] 0.023 | quisinostat 0.115 | tipifarnib 0.01 | [6] 0.083 | [7] -0.016 | [8] -0.035

NAA38 isoform 2 (UniProt Q9BRA0)
inactive: lapatinib -0.028 | pictilisib -0.018 | crizotinib 0.001 | duvelisib -0.016 | gandotinib 0.202 | tozasertib 0.062 | doramapimod -0.088 | bafetinib -0.041 | nilotinib -0.024 | [3] 0.059 | dasatinib -0.014 | [4] -0.007 | [5] 0.001 | quisinostat 0.03 | tipifarnib -0.03 | [6] 0.027 | [7] 0.016 | [8] -0.019
active: [1] -0.382 | [2] 0.244

NARF (UniProt Q9UHQ1)
inactive: lapatinib -0.027 | pictilisib 0.01 | crizotinib 0.032 | [1] 0.001 | duvelisib 0.029 | gandotinib 0.008 | tozasertib 0.02 | doramapimod 0.012 | bafetinib -0.008 | [2] -0.04 | nilotinib -0.029 | [3] 0.011 | dasatinib 0.01 | [4] -0.031 | [5] 0.014 | quisinostat -0.03 | tipifarnib -0.062 | [6] 0.017 | [7] -0.079 | [8] 0.005

MYADM (UniProt Q96S97)
inactive: lapatinib 0.045 | pictilisib -0.033 | crizotinib -0.033 | [1] -0.06 | duvelisib -0.005 | gandotinib 0.021 | tozasertib -0.109 | doramapimod 0.003 | bafetinib 0.04 | [2] 0.049 | nilotinib -0.046 | [3] 0.004 | dasatinib 0.011 | [4] 0.042 | [5] -0.057 | quisinostat -0.044 | tipifarnib 0.028 | [6] 0.067 | [7] -0.06 | [8] 0.016

NCOA4 isoform 4 (UniProt Q13772)
inactive: lapatinib 0.005 | pictilisib -0.091 | crizotinib -0.004 | [1] 0.016 | duvelisib 0.018 | gandotinib -0.082 | tozasertib 0.059 | doramapimod 0.015 | bafetinib -0.239 | [2] 0.006 | nilotinib -0.041 | [3] 0.002 | dasatinib -0.018 | [4] -0.047 | [5] -0.013 | quisinostat -0.005 | tipifarnib -0.107 | [6] 0.057 | [7] 0.173 | [8] -0.051

NAP1L4 isoform 2 (UniProt Q99733)
inactive: lapatinib 0.044 | pictilisib 0.034 | crizotinib 0.019 | [1] 0.048 | duvelisib -0.012 | gandotinib -0.041 | tozasertib 0.01 | doramapimod -0.047 | bafetinib 0.043 | [2] -0.048 | nilotinib 0.041 | [3] -0.007 | dasatinib 0.006 | [4] -0.031 | [5] -0.003 | quisinostat 0.009 | tipifarnib -0.009 | [6] 0 | [7] 0.007 | [8] -0.009

NCDN isoform 3 (UniProt Q9UBB6)
inactive: lapatinib -0.023 | pictilisib -0.037 | crizotinib -0.025 | [1] 0.065 | duvelisib -0.017 | gandotinib -0.135 | tozasertib -0.017 | doramapimod -0.002 | bafetinib -0.011 | [2] 0.009 | nilotinib -0.018 | [3] 0.024 | dasatinib 0.009 | [4] -0.004 | [5] 0.042 | quisinostat -0.011 | tipifarnib -0.037 | [6] 0.021 | [7] 0.002 | [8] -0.002

NCAPH (UniProt Q15003)
inactive: lapatinib -0.012 | pictilisib 0.005 | crizotinib -0.019 | [1] -0.015 | duvelisib 0.046 | gandotinib -0.101 | tozasertib 0 | doramapimod 0.036 | bafetinib -0.013 | [2] 0.028 | nilotinib -0.033 | [3] 0 | dasatinib -0.03 | [4] -0.017 | [5] -0.017 | quisinostat 0.005 | tipifarnib 0.023 | [6] 0.013 | [7] 0.006 | [8] -0.017

NBN (UniProt O60934)
inactive: lapatinib 0.008 | pictilisib -0.006 | crizotinib -0.028 | [1] 0.033 | duvelisib -0.006 | gandotinib -0.05 | tozasertib 0.032 | doramapimod 0.001 | bafetinib -0.016 | [2] -0.026 | nilotinib 0.004 | [3] 0.013 | dasatinib -0.019 | [4] 0.037 | [5] 0.03 | quisinostat 0.011 | tipifarnib 0.005 | [6] 0.046 | [7] -0.024 | [8] -0.015

MYDGF (UniProt Q969H8)
inactive: lapatinib -0.013 | pictilisib 0.004 | crizotinib -0.011 | [1] -0.089 | duvelisib 0.022 | gandotinib 0.05 | tozasertib -0.032 | doramapimod -0.028 | bafetinib -0.011 | [2] 0.019 | nilotinib -0.007 | [3] 0.003 | dasatinib 0.007 | [4] 0.014 | [5] 0.015 | quisinostat -0.084 | tipifarnib 0.005 | [6] 0.012 | [7] -0.027 | [8] -0.006

2 successive records from above, for reference:
NCAPH (UniProt Q15003)
inactive: lapatinib -0.012 | pictilisib 0.005 | crizotinib -0.019 | [1] -0.015 | duvelisib 0.046 | gandotinib -0.101 | tozasertib 0 | doramapimod 0.036 | bafetinib -0.013 | [2] 0.028 | nilotinib -0.033 | [3] 0 | dasatinib -0.03 | [4] -0.017 | [5] -0.017 | quisinostat 0.005 | tipifarnib 0.023 | [6] 0.013 | [7] 0.006 | [8] -0.017

NBN (UniProt O60934)
inactive: lapatinib 0.008 | pictilisib -0.006 | crizotinib -0.028 | [1] 0.033 | duvelisib -0.006 | gandotinib -0.05 | tozasertib 0.032 | doramapimod 0.001 | bafetinib -0.016 | [2] -0.026 | nilotinib 0.004 | [3] 0.013 | dasatinib -0.019 | [4] 0.037 | [5] 0.03 | quisinostat 0.011 | tipifarnib 0.005 | [6] 0.046 | [7] -0.024 | [8] -0.015

Additional results follow:

MUL1 (UniProt Q969V5)
inactive: lapatinib 0.013 | pictilisib -0.065 | crizotinib -0.005 | [1] 0.16 | duvelisib 0.035 | gandotinib -0.028 | tozasertib 0.013 | doramapimod 0.042 | bafetinib -0.008 | [2] 0.021 | nilotinib -0.001 | [3] 0.066 | dasatinib -0.025 | [4] -0.037 | [5] -0.004 | quisinostat 0.12 | tipifarnib 0.018 | [6] 0.02 | [7] -0.014 | [8] 0

NAPA (UniProt P54920)
inactive: lapatinib 0.008 | pictilisib 0.006 | crizotinib -0.003 | [1] 0.032 | duvelisib 0.033 | gandotinib -0.061 | tozasertib -0.006 | doramapimod 0.014 | bafetinib 0.001 | [2] -0.045 | nilotinib 0.016 | [3] 0.004 | dasatinib -0.056 | [4] 0.011 | [5] 0.038 | quisinostat 0.107 | tipifarnib 0.024 | [6] -0.078 | [7] 0.018 | [8] 0.037

N6AMT1 (UniProt Q9Y5N5)
active: [1] 0.34
inactive: lapatinib -0.018 | pictilisib -0.038 | crizotinib -0.02 | duvelisib -0.017 | gandotinib -0.033 | tozasertib 0.008 | doramapimod 0.014 | bafetinib -0.109 | [2] -0.098 | nilotinib -0.009 | [3] 0.1 | dasatinib 0.002 | [4] 0.018 | [5] 0.013 | quisinostat 0 | tipifarnib 0.06 | [6] -0.013 | [7] -0.027 | [8] 0.037
